Results as given in PMC10778290.
Results are given in words; binding and its absence hold for the method and conditions named. Binding seen in cells or lysates may run through a third protein. Some entries that bind do so weakly or less than the wild type. For some of these results: Where a sequence is shown, tags or fusion partners need not be part of it. Each block holds one molecule with its values, some of them ahead of it.

Sequences of proteins named here, by UniProt entry; tags and fusion partners are left off. Residues count along the entry.
UniProt P08581, residues 25-1390: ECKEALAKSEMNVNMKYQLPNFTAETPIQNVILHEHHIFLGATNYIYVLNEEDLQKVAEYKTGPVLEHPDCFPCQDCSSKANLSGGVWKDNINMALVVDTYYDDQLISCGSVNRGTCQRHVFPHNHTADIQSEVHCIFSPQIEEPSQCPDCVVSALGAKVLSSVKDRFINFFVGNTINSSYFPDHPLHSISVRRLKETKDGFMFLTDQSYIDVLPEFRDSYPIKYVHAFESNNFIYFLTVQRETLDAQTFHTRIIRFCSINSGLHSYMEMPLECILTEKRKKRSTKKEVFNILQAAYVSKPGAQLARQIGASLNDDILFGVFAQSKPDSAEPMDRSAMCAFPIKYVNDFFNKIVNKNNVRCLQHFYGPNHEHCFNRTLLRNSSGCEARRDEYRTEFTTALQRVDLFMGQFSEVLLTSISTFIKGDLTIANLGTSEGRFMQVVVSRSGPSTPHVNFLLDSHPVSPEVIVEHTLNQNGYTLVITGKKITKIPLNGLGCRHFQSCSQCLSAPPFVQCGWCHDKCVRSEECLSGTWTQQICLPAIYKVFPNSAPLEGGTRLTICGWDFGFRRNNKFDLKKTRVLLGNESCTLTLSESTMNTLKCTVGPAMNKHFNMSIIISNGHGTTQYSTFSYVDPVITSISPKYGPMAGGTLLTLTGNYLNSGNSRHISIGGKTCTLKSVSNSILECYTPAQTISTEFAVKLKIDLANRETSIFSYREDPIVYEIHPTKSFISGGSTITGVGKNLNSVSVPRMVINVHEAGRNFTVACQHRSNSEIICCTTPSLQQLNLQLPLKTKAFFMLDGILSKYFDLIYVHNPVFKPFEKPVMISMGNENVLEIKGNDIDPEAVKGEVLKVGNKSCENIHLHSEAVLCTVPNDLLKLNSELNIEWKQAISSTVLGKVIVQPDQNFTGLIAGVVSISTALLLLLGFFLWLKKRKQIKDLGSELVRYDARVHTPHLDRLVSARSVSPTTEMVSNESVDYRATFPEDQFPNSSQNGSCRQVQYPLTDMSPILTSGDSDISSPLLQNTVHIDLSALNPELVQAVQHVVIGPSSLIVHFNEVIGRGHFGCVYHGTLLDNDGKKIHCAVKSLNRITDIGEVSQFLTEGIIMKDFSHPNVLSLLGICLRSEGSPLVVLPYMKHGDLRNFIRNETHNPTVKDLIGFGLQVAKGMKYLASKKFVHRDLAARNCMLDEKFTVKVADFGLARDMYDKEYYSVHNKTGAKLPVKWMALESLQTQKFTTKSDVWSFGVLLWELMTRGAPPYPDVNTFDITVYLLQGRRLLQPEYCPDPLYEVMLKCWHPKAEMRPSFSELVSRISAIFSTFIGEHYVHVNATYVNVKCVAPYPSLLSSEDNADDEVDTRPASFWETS

Legend:
[1] = target: T1, Flag-tagged ESM1 in the supernatant of transfected HEK293T cells (human) (UniProt Q9NQ30); assay: co-IP; HUVECs transfected with Myc-c-Met treated with the supernatant of HEK293T cells transfected with Flag-ESM1; 5 mg total cell lysate immunoprecipitated overnight at 4 °C with anti-Flag or anti-Myc beads; immunoblot
T1 sequence: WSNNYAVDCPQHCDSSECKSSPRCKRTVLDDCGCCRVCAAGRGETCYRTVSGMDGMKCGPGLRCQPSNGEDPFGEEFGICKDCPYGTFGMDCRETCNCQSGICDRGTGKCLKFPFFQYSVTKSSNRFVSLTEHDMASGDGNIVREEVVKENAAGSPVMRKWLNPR

GST-ESM1 (human) = target: T2, GST-ESM1 (human) (UniProt Q9NQ30); assay: pull-down; GST-ESM1 on GST agarose beads incubated overnight at 4 °C with lysates of HUVECs overexpressing Myc-c-Met; washed three times with PBS; Western blot with anti-Myc; GST alone as control; only the target purified
T2 sequence: T1 sequence

[2] = target: T3, Endothelial-specific molecule 1 (ESM1) in the supernatant of AGS cells overexpressing ESM1 (human) (UniProt Q9NQ30); assay: co-IP; HUVECs treated with the supernatant of AGS cells overexpressing ESM1, then lysed; immunoprecipitation with anti-c-Met antibody and with anti-ESM1 antibody; IgG as negative control; immunoblot
T3 sequence: T1 sequence

[3] = target: c-Met, endogenous in HUVECs (human (endogenous in HUVEC)) (UniProt P08581); assay: as above

binding [1]: binds
binding (GST-ESM1 (human)): binds
Molecule: Myc-tagged c-Met expressed in HUVECs (from UniProt P08581 25-1390) (receptor)

binding [2]: binds
Molecule: c-Met, endogenous in HUVECs (from UniProt P08581 25-1390) (receptor)

binding [3]: binds
B1: Endothelial-specific molecule 1 (ESM1) in the supernatant of AGS cells overexpressing ESM1 (ligand, UniProt Q9NQ30 20-184)
chain: T1 sequence
